Laboratory results reported in patent US20120100188A1, “SOLID STATE FORMS OF PALIPERIDONE SALTS AND PROCESS FOR THE PREPARATION THEREOF” (Actavis Group PTC ehf, priority 2009, published 2012).
At least one structure is not confirmed: it was looked up by name or label, or the drawing left a doubt.

Assay: Solubility test of paliperidone and its salts in water (100 mg of sample)
Assay type: physicochemical
Conditions: with sonication, 100 mg of sample used
Method: The solubility data of paliperidone and solid state forms of paliperidone salts is furnished in the below table. The 100 mg of sample was used for solubility test.

For `Cc1nc2n(c(=O)c1CCN1CCC(c3noc4cc(F)ccc34)CC1)CCCC2O.O=C(O)/C=C/C(=O)O` (stereo not shown), the “Solubility Water (sonication)” value was 100 mg/25 ml.
